Laboratory results published in article PMC9596149.
Results are given in words; binding and its absence hold for the method and conditions named. Binding calls can cover weak binding; strength is not graded here.

Molecular target: T1, GlnR of Lactobacillus plantarum WU14 (pGBKT7-GlnR) (Lactobacillus plantarum WU14) (UniProt F9UNV8)
T1 sequence: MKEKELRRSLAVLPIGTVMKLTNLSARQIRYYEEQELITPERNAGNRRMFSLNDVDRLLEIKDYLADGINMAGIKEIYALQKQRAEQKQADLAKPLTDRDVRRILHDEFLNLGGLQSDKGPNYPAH
Assay: two-hybrid; AH109 yeast co-transformed with pGBKT7-GlnR (bait) and pGADT7-Nir; SD/-Leu/-Trp/X-alpha-Gal and SD/-Leu/-Trp/-His+X-alpha-Gal plates, 30°C; blue colonies as read-out; empty pGBKT7 and pGADT7 as controls

binding: binds
Substance: Nitrite reductase (Nir) of Lactobacillus plantarum WU14 (pGADT7-Nir) (enzyme)
